According to patent US6469132B1, “Diblock copolymer and use thereof in a micellar drug delivery system” (McGill University, priority 1999, dated 2002):
At least one structure is not confirmed: it was looked up by name or label, or the drawing left a doubt.

Key:
[1] = test system: PC 12 rat pheochromocytoma cells; test: Cell differentiation assay: neurite-like outgrowth; format: cell-based
Procedure: In each case, the degree of neurite-like outgrowth was taken to be 100% in the control wells of untreated PC 12 cells. The degree of differentiation in cell wells in the presence of NGF and/or drug is expressed as a percentage relative to 100% for the control.
PC 12 cells were plated in 24 well plates at 37° C. in 5% CO2 and incubated in DMEM supplemented with 5% fetal bovine serum and the treatments described below. Neurite-like outgrowth in PC 12 cells was detected after a 48 hour period using a Nikon light microscope. For each data point 5 fields of 250-300 cells/well were analyzed. For the quantitation of neurite-like outgrowth the PC 12 cells were considered to have outgrowth if their processes were longer than the length of the diameter of the cell.
A range of concentrations of either NGF (0.1 to 50 ng/mL), FK506 (1 to 500 nM) or L,685-818 (1 to 500 nM) alone or combinations of 0.5 or 5 ng/mL of NGF with either FK506 (5 to 500 nM) or L-685,818 (50 nM to 10 μM), were incubated with the PC 12 cells for a 48 hour incubation period. The wells with untreated cells were used as controls.
The unfiltered solution of the micelle incorporated drug was added to the cell wells at different concentrations: a 10 μL aliquot of a FK506-micelle solution was added to each 0.5 mL cell well. […]

[2] = rats; Butcher et al. 1997; cited from earlier work

C=CC[C@@H]1/C=C(\C)C[C@H](C)C[C@H](OC)[C@H]2O[C@@](O)(C(=O)C(=O)N3CCCC[C@H]3C(=O)O[C@H](/C(C)=C/[C@@H]3CC[C@@H](O)[C@H](OC)C3)[C@H](C)[C@@H](O)CC1=O)[C@H](C)C[C@@H]2OC [FK506]
effect of drug concentration on degree of differentiation ([1]; drug alone, no NGF, 48 h): no effect on the degree of differentiation | potentiation of the effect of NGF on neurite-like outgrowth ([1]; with 5 ng/mL NGF, PC 12 cell cultures): potentiate the effect of NGF on the outgrowth of PC 12 cells | effective dose [2]: 1 mg/kg
